# Measurements taken from the supplement of paper PMC10338343.
# ± gives the standard deviation. The list shows a part of the results. Many of these values have a large error.
# System: EfPiwi piRISC loaded with L1MC piRNA (26 nt)
# Experiment: pre-steady-state target cleavage rate (min^-1); guide: L1MC piRNA 5'p-UAACUAAAUACUAUGCAAGCUGUAGG; MIWI and MILI are mouse PIWI proteins and EfPiwi is from a freshwater sponge; tags in brackets are library labels; higher = faster piRNA-guided slicing of the target
# Details: auxiliary factor: 500 nM Ephydatia muelleri Gtsf1
# Procedure, shortened: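 The pre-steady-state cleavage rate was obtained by Cleave-'n-Seq with a burst-and-steady-state fit. A transcribed, DNA-blocked target RNA library (0.1 nM) was mixed with 1 nM active affinity-purified piRISC carrying one synthetic guide, with or without 500 nM GTSF1 partner protein, in HEPES–potassium acetate buffer at 33 °C for 0–8 or 0–960 min. Uncleaved targets were sequenced and normalised to depth and to weakly complementary targets, with three trials pooled and k3 capped at 0.0001 min^-1.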
row,Sequence,pre-steady-state target cleavage rate
1,UCCUGGAACAGCUACGAUAGUAUUUACAAA,0.0003 ± 0.014
2,UCCUCCUACAGCUUGCAAAGUUUUUAGUUA,0.00281 ± 0.0022
3,UCCUGGAUGUGGUUGCAUACUAUUUAGUUA,0.00252 ± 0.0027
4,UCCUGGAUGUCGAAGCAUAGUUUUUAGUUA,0.000302 ± 0.0098
5,UCCUGGAUGUCGAACCAUUGAAUUUAGUUA,< 0.0001
6,UCCUGCUACAGCUUGGUAAGUAUUUAGAAA,0.00103 ± 0.0049
7,UCCUGGAUCAGCUUGCAUAGUUUUUUCAAA,0.00141 ± 0.0037
8,UCCUGGAUGAGCUUGCAUAGAUAUUAGUUA,0.00029 ± 0.011
9,UCCUGGAUGAGCUUGCAUAAGUAUUUAGUUA,0.00127 ± 0.0042
10,UCCUGGAUGAGCUUGCAUAGUAAAAAGAAA,0.00116 ± 0.0061
11,UCCUGGAUGUCGAUGCAAUAGUAUUUAGUUA,0.00119 ± 0.008
12,UCCUGGAUGUGCUUGCAUAGUUUUAGUUA,0.0014 ± 0.0064
13,UCCUGGAUGAGCUACCAUAGUAUUUAGUAA,0.000569 ± 0.0078
14,UCCUGGUUACAGCUUGCAUAGUAUUUAGUUA,0.0881 ± 0.021
15,UCCUGGAUGUCCUUGCAUAGUUUUAAGUUA,0.000995 ± 0.0052
16,UCCUGGAUGUGCUUGCAUAGAUUUAGUUA,0.00126 ± 0.0046

# Reprinted, entries 13 to 14
row,Sequence,pre-steady-state target cleavage rate
13,UCCUGGAUGAGCUACCAUAGUAUUUAGUAA,0.000569 ± 0.0078
14,UCCUGGUUACAGCUUGCAUAGUAUUUAGUUA,0.0881 ± 0.021
